# Primary screen of a compound library

Mtb glucose medium: 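Growth of Mycobacterium tuberculosis over 3 days (7H9 medium with glucose and tyloxapol); the read-out is not stated. Concentration: 50 µM. The record gives no direction; compounds that gave an IC50 in retests scored well above the rest, so higher reads as more growth inhibition. Of about 69,000 compounds tested this way, about 760 (1.1%) reached 50% or more in at least one test.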
Mtb cholesterol medium: 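Phenotypic screen: M. tuberculosis growth, cholesterol and DPPC medium, 4 days; the read-out is not stated. Tested at 50 µM. Higher reads as more growth inhibition (inferred: compounds with an IC50 in retests scored well above the rest). Of about 69,000 compounds tested this way, about 370 (0.54%) reached 50% or more in at least one test.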

Each number is a percent effect as filed.
The record does not define 0% and 100%; most values in the screen are far below 50% and negative numbers occur (in some assays of this library far below -100).
The compounds are a random part of those screened.
Two or more numbers in one place are separate tests of the same structure; such repeats can differ widely.

With Cc1cc(C)c2nc(CN3CCOC(CCO)C3)cc(O)c2c1 (centres undefined) the screen gave Mtb glucose medium: 43.93%; Mtb cholesterol medium: 7.78%.
With CS(=O)(=O)N1CCC2(CC1)CC(CC(=O)NCC1CC1)c1ccccc12 (centres undefined) the screen gave Mtb glucose medium: 6.78%; Mtb cholesterol medium: 6.353%.
With CC(C)c1nnc2n1CCN(C(=O)c1cccc(C(F)(F)F)c1)C2 the screen gave Mtb glucose medium: -18.23%; Mtb cholesterol medium: -2.853%.
With Cc1cc(C(=O)N2CCN(c3ccncc3Cl)CC2)n(C)n1 the screen gave Mtb glucose medium: -1.497%; Mtb cholesterol medium: 1.641%.
With N#Cc1ccnc(N2CCC(c3nccn3Cc3cscn3)CC2)c1 the screen gave Mtb glucose medium: -62.28%; Mtb cholesterol medium: -47.66%.
With COc1ccc(NC(C)=O)c(N2CCN(C(C)=O)CC2)n1 the screen gave Mtb glucose medium: -13.34%; Mtb cholesterol medium: -14.78% and -11.7%.
With Cc1cc(C)n(CC(=O)N(CC2CN(C)CCO2)c2nccs2)n1 (centres undefined) the screen gave Mtb glucose medium: 17.56%; Mtb cholesterol medium: -0.3168%.
With CCc1ccccc1Nc1noc2c1CN(C(=O)CCOC)CC2 the screen gave Mtb glucose medium: -17.62%; Mtb cholesterol medium: -45.4%.
With Cc1ccc(=O)n(CC2(O)CCN(Cc3cnc(C)nc3)CC2)n1 the screen gave Mtb glucose medium: -5.471%; Mtb cholesterol medium: -31.15%.
With O=C(NCc1cccc(F)c1)Nc1ccn(CCN2CCOCC2)n1 the screen gave Mtb glucose medium: 12.17%; Mtb cholesterol medium: -17.31%.
With CSCC(C)NS(=O)(=O)c1ccc(C)c(N(C)C)c1 (centres undefined) the screen gave Mtb glucose medium: 5.22%; Mtb cholesterol medium: 4.095%.
With Cc1cc(S(=O)(=O)N2CCCc3cc(F)c(F)cc32)sc1C(=O)O the screen gave Mtb glucose medium: -45.38%; Mtb cholesterol medium: -29.83% and -12.7%.
With COC(=O)c1ccc(OCCn2cnc(C#N)n2)cc1 the screen gave Mtb glucose medium: 3.725%; Mtb cholesterol medium: -17.96%.
With Cc1ccc(-n2nc3n(c2=O)CCN(C(=O)c2ccc(Cl)cc2)C3)cc1 the screen gave Mtb glucose medium: 8.705%; Mtb cholesterol medium: -9.699%.
With CC(=O)N(Cc1noc(C2CC2)n1)C1CCN(CC2CCOCC2)C1 (centres undefined) the screen gave Mtb glucose medium: -19.23%; Mtb cholesterol medium: -7.818%.
With Cc1cc(C)n(C2CN(Cc3ccc(C(=O)N4CCCC4)cc3)C2)n1 the screen gave Mtb glucose medium: 0.8078%; Mtb cholesterol medium: -2.766%.
With CCNC(=O)c1cn2cc(-c3ccccc3Cl)n(CC3CC3)c(=O)c2n1 the screen gave Mtb glucose medium: 43.25%; Mtb cholesterol medium: 41.54%.
With [H][C@@]12OCCN(Cc3ccsc3)[C@@]1([H])CC[C@H]2Oc1ccccn1 the screen gave Mtb glucose medium: 3.342% and 13.51%; Mtb cholesterol medium: -10.93%.
With NS(=O)(=O)CCN1CCN(c2ccccc2O)CC1 the screen gave Mtb glucose medium: 0.07625%; Mtb cholesterol medium: -5.32% and -6.953%.
With CC(C(=O)Nc1ccc(N2CCCC2)nc1)n1ccnc1 (centres undefined) the screen gave Mtb glucose medium: 8.885%; Mtb cholesterol medium: -7.874%.
With COCCN(C)C(=O)c1ccc2onc(-c3coc(C)n3)c2c1 the screen gave Mtb glucose medium: 4.196%; Mtb cholesterol medium: 2.723%.
With CCc1nc2n(n1)CC(NCc1noc(-c3ccccc3)n1)CC2 (centres undefined) the screen gave Mtb glucose medium: 22.48%; Mtb cholesterol medium: -9.648%.
With CC(C)C(=O)N1CCc2nc(C(=O)Nc3cccnc3)sc2CC1 the screen gave Mtb glucose medium: -3.27%; Mtb cholesterol medium: -9.654%.
With Cc1nn(C)c(Cl)c1C1CCCN1C(=O)c1ccc(O)nc1 (centres undefined) the screen gave Mtb glucose medium: -6.829% and 3.399%; Mtb cholesterol medium: -29.18%.
With COCCCN1Cc2cccc(NC(=O)C(C)(C)C)c2C1 the screen gave Mtb glucose medium: -7.243%; Mtb cholesterol medium: 3.362% and -1.37%.
With CCCc1cnc(C)nc1N1CCC(Cn2cc(CO)nn2)CC1 the screen gave Mtb glucose medium: -15.52%; Mtb cholesterol medium: -9.368%.
With O=C(COCCOc1ccccc1)NC1CCN(c2ccccn2)CC1 the screen gave Mtb glucose medium: 5.525% and -5.56%; Mtb cholesterol medium: -4.866%.
With CCc1nn(C)c(Cl)c1CN1CCN(c2ccc(Cl)nn2)CC1 the screen gave Mtb glucose medium: 6.785% and -17.61%; Mtb cholesterol medium: -20.31%.
With O=C(O)C(F)(F)F.[H][C@@]12CC(=O)N(c3ccsc3)[C@@]1([H])CCN2Cc1ccc(C)o1 the screen gave Mtb glucose medium: -12.58% and -11.95%; Mtb cholesterol medium: -12.63%.
With Cc1cnccc1CN(C)Cc1c[nH]nc1-c1ccc(F)cc1F the screen gave Mtb glucose medium: -19.35%; Mtb cholesterol medium: 15.88%.
With COc1cccc(CNC[C@H]2COCc3nc4cccnc4n32)n1 the screen gave Mtb glucose medium: 23.41% and -6.353%; Mtb cholesterol medium: 19.2%.

Data taken from ChEMBL document CHEMBL3988442, “University of Dundee, Small-Polar-MMV Screening Library” (2021).